Laboratory results published in PubChem BioAssay AID1347423 (Functional Genomics Laboratory (NCATS/FGL), 2020).
Out of some 52,000 sequences screened, about 210 (0.4%) were called active.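 How the source made its calls: active means gene whose silencing raises cell survival under the drug, median off-target-corrected z-score across its silencing RNAs 2 or more; inactive means the rest.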 The list shows a part of the results.

Assay: Resistance to Poly (ADP-Ribose) Polymerase inhibitor: Gene Identification via Genome-wide siRNA Screen
Settings: mouse BRCA2 R2336H ES cells, olaparib, CellTiter-Glo viability; active compounds read high
Text: The role of Poly (ADP-Ribose) Polymerase (PARP) proteins in DNA repair has been elegantly utilized for the synthetic lethality-based treatment of BRCA-deficient tumors by PARP inhibitors. PARP inhibitors are now being used for treatment of BRCA-deficient breast and ovarian cancers. […] While several mechanisms of drug resistance have been identified, majority of these tumors develop drug resistance due to unknown causes. To identified novel regulators of chemo-resistance in BRCA2-mutated cells, we performed a genome wide siRNA library screen. We have found ES cells expressing a hypomorphic allele of BRCA2 to be hypersensitive to PAPP inhibitors (such as olaparib). We used ES cells expressing a mutant allele of BRCA2 that has a single amino acid substitution at position 2336 (arginine to histidine, R2336H). The screen was conducted using an Ambion (Thermo) Silencer Mouse Genome siRNA collection. The library targets 17,575 mouse genes with 3 siRNAs per gene. TET2 (E130014J05Rik) was identified as a top candidate.
Transfections were performed in 384 well plates (Corning 3707). Plates were coated with 0.1% gelatin in H2O overnight at ambient temperature. Gelatin solution was aspirated (BioTek EL406) and siRNAs were printed using a Bravo VPrep liquid handler integrated within a BioCel automation platform (Agilent). Cell viability was measured using CellTiter Glo (Promega). For transfections, […] of serum free media containing Lipofectamine RNAiMax […] was added to wells containing siRNA (0.8pmol). Lipid and siRNA were allowed to complex for 45 min at ambient temperature before addition of 1000 cells in DMEM, 30% FBS to yield final transfection mixtures containing 20 nM siRNA in DMEM, 15% FBS. PARPi (olaparib, AZD2281) was added 48 h post-transfection (500 nM) and viability (CellTiter Glo, Promega) was assayed 72 h later on a PerkinElmer Envision 2104 Multilabel plate reader. Ambion Silencer Select Negative Control #2 was incorporated on all screening plates (16 wells) and the median negative control value on each plate was used for normalization. An siRNA targeting Trp53 was used as a positive control. This control yielded a median protective effect of ~1.9 fold versus negative control throughout the screen. The median absolute deviation (MAD) based z-score was calculated for each siRNA. Genes were then ranked by taking the median value for all siRNAs tested against a given gene. Scores were also adjusted for seed-based off-target effects to help deprioritize likely false positives.

Sequence | z-score
GGUCAUUGCAUCUGACAAGTT against Pcdha2 | inactive: -0.34
GGCAGCUGAUCAGAAAUCATT against Gabrg3 | inactive: 0.942
GGUGUGUAUGGUGCUAGGATT against Olfr1507 | inactive: 1.59
GACCAUCUCCUUUACGGGCTT against Olfr71 | inactive: 0.721
GGUUUUUUUUUCCAGUCCATT against Stam2 | inactive: -1.04
CCUAUGAGUCUUACGUGAATT against Cyp4x1 | inactive: -0.593
GGUAAGCAUGGAAAGGCUGTT against Prdm15 | inactive: 0.827
GGCUCUUAACUAUGAAAUATT against Apcs | inactive: 0.274
GAUUGCCAAAGACAAAAGCTT against V1rh18 | inactive: -0.437
GGUAUACUAACUUUUAAGGTT against Fmo1 | inactive: -0.518
GCAUACUCACGUCCACUCATT against Gfi1b | inactive: -0.553
GCCUACGCUCUAUCUAGCUTT against 2900091E11Rik | inactive: -0.0221
GGAACAAGUAAAAUUCGUCTT against Stk22b | inactive: 1.54
GCAAAAGCUUUACUUAGUATT against Prlpi | inactive: 0.0719
GCUCUCGAUCAGGAUGUAATT against Vsx1 | inactive: -0.859
GCUCUGUUAUAGCCAUGGUTT against Spib | inactive: -0.978
GGCUUUGAAUUUCUAAGACTT against Olfr125 | inactive: -0.0462
GGUAGCUUACAAACCAUCATT against Map3k7ip1 | inactive: -0.689
GGAAUACACUCAAUAUUGATT against Nupl1 | inactive: -1.17
CGCGCAAUGCUCCUUUGAGTT against Retnlb | inactive: -0.283
GUCAAAAUGACCAAAGAUGTT against Mte1 | inactive: 0.106
GGUAGCUGUUUAGGACAAUTT against Arl6ip5 | inactive: -1.38
GCAGGAUUAUUUGUCACUUTT against Lims2 | inactive: 0.73
GGAAAUCCUCAACUUCAUUTT against Cyp2b13 | inactive: -0.433
GGACCAAGUGGAGAAAGAATT against Nkx6-1 | inactive: -2.76
GGAAAGGAAUCCAAAAAUCTT against Lias | inactive: 1.44
GAUAAUGGUCACUAAAUCUTT against V1rc21 | inactive: -0.418

Sequence | z-score
GGCCUUCCGCAUUUUAUCATT against A530054K11Rik | inactive: 0.635
GGAGAUUUGUUGUUAAGGGTT against Pcdhb2 | inactive: -0.669
GGACCUGACCUACUCGUGUTT against Rxrb | inactive: 0.714
GAAGCAGAUACCAAAACAATT against Kir3dl1 | inactive: -0.506
GGAAAGUGUGGUGACUUCATT against Olfr860 | inactive: -2.78
CCAACUCUAAUAAUAACAGTT against BC014805 | inactive: -1.38
GGACCACCAAGAGGAAGUGTT against F730004D16Rik | inactive: 0.219
GGAUCUUCAGGUUCUGAUGTT against 2010311D03Rik | inactive: -0.019
GGCCCUACAAACUAUUAACTT against Impa2 | inactive: 0.885
CGCACUGAAGGGAUGCGAUTT against Dyrk2 | inactive: 0.664
CCCUCAAAACCUUAAUGGGTT against B3galt1 | inactive: -0.053
CCGACUAUCUAUCUACUGATT against Agxt2 | inactive: 0.185
CCCAGCUAGACAGUCUUUCTT against Il11 | inactive: -0.86
GCUUCUUCCUUAGAUGGCATT against Kcnb1 | inactive: 0.224
GUUCAAGACGGAGAAGAGGTT against Gpr27 | inactive: 0.961
GCAUCUGAAAAUCCUCAACTT against Cxcl12 | inactive: -0.198
CGGGCAUUAAGGUAUGGAATT against A630024J02Rik | inactive: -0.39
GCUAUGUGUACAGCUGCUGTT against V1rd2 | inactive: -1.09
GGCUAUCUUCAAUAUACUGTT against Lamp3 | inactive: 0.254
GCAGUAUACUUUUGUGAAUTT against Plxna2 | inactive: -0.711
GGCAAACAUGGAAUACACCTT against Gabrd | inactive: 0.249
GGUCAAUGGAAUGAAAACCTT against Ptprc | inactive: 0.0693
UCAUCGUACCCAUUCCCAATT against Manbal | inactive: 2.23
GGCCUAUGGAUUUGACUUCTT against Mrpl28 | inactive: 0.327
GGAAAGGAAAAUCAACUUCTT against Usp14 | inactive: 0.59
GGGAUUUGUUGUCUAAGAUTT against Mapk10 | inactive: 0.0938

Reformatted tab-delimited: part of the list above.
Sequence	z-score
GCUUCUUCCUUAGAUGGCATT against Kcnb1	inactive: 0.224
GUUCAAGACGGAGAAGAGGTT against Gpr27	inactive: 0.961
GCAUCUGAAAAUCCUCAACTT against Cxcl12	inactive: -0.198
